Protein sequences, listed by entry. Tags and fused reporters are not part of them. Lines headed by an entry give the natural chain unless they say otherwise; changes in a name come on top.
UniProt P18054: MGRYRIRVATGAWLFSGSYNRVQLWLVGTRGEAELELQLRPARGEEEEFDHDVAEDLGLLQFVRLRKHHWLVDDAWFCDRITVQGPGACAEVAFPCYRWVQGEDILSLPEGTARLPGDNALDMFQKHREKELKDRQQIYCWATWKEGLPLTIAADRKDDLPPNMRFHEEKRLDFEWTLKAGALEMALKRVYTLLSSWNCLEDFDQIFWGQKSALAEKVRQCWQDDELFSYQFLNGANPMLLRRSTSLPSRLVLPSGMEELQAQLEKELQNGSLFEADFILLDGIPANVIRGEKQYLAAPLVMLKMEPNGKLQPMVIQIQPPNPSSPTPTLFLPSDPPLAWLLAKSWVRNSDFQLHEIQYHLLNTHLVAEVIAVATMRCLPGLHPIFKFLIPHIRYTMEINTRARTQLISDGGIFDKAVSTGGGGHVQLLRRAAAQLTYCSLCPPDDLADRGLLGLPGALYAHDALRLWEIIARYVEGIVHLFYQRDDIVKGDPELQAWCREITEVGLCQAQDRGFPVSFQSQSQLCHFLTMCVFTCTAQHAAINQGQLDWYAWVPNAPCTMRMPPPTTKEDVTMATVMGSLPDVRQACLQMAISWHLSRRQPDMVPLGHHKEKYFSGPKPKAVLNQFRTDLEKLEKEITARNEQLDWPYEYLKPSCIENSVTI

Among all 580,000 compounds or so, about 6,100 (1.1%) were called active. The shares of active, inactive and inconclusive entries below differ from those in the screen. Calls come from the whole dose curve; as a rule, active = well fitted inhibition curve with a large enough effect; inconclusive = small, poorly fitted or top-dose-only effect, or another doubt; inactive = no such curve, though single readings can be large or run the other way. Potencies beside an inconclusive call are fits to weak or partial responses and may not hold up.
These compounds were tested against Polyunsaturated fatty acid lipoxygenase ALOX12 (Homo sapiens) (UniProt P18054) (assay: Primary qHTS assay for inhibitors of human arachidonate 12S-lipoxygenase (ALOX12): Round 2). Settings: purified 12hLO, xylenol orange hydroperoxide absorbance; series mostly up to 108 µM.
Procedure, shortened: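 Purified human 12hLO at 150 nM in 25 mM Hepes, 0.01% Triton X-100, pH 7.0, preincubated 15 min at room temperature with compound. Reaction started with 40 uM arachidonic acid, 30 min at room temperature. Hydroperoxide measured by Fe-xylenol orange, 573/405 nm absorbance ratio.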
For `Cc1cc(NC(=O)CCCS(=O)(=O)c2nc(-c3cccs3)cc(C(F)(F)F)n2)no1`, the Potency was “inactive”. `O=C(CN1CCN(C(c2ccccc2)c2ccccc2)CC1)N1CCOCC1` was tested, and the Potency was inconclusive: 0.398 µM [inhibitor, full curve, poor fit]. For `COc1cccc(OCC(C)CN2CCC(C(O)(c3ccccc3)c3ccccc3)CC2)c1` (stereo unspecified), the Potency was inconclusive: 44.7 µM [inhibitor, partial curve, poor fit]. `CC1(Cc2ccc(Cl)cc2)C(=O)Nc2c(Cl)ccc(Cl)c21` (stereo unspecified) was tested, and the Potency was inconclusive: 50.1 µM [inhibitor, partial curve, poor fit]. For `O=C1CC(=O)N(c2cccc(F)c2)N1`, the Potency was inconclusive: 14.1 µM [inhibitor, partial curve]. In the case of `O=C1CCCN1c1ccc(-c2csc(-c3cccs3)n2)cc1`, the Potency is reported as inconclusive: 7.08 µM [inhibitor, partial curve, poor fit]. In the case of `O=C(Nc1cccc(N2CCCC2)c1)c1cccs1`, the Potency is reported as inconclusive: 56.2 µM [inhibitor, partial curve, poor fit]. With `O=C(/C=C/c1ccco1)Nc1cccc2cccnc12` the Potency was inconclusive: 44.7 µM [inhibitor, partial curve, poor fit]. With `Cc1cc(OCCN2CCC(Cc3ccccc3)CC2)ccc1[N+](=O)[O-]` the Potency was active: 6.31 µM. With `CCCCNC(=S)NC1CCC(NC(=S)NCCCC)CC1` (stereo unspecified) the Potency was “inactive”. With `CC(NC(=O)Cn1nnn(-c2ccccc2)c1=O)c1ccccc1` (stereo unspecified) the Potency was inconclusive: 70.8 µM [inhibitor, single point]. In the case of `CCOC(=O)N1CCN(CC(=O)Nc2cc(OCC)ccc2OCC)CC1`, the Potency is reported as active: 1.58 µM. With `COCc1cc(=O)n(CC(=O)Nc2cc(OC)ccc2OC)c(N2CCOCC2)n1` the Potency was “inactive”. `CN1CCN(C2CC(=O)N(CCc3ccccc3)C2=O)CC1` (stereo unspecified) was tested, and the Potency was inconclusive: 112 µM [inhibitor, single point]. In the case of `O=C(/C(=C\c1ccccc1)c1nc2ccccc2[nH]1)c1ccc(Cl)cc1`, the Potency is reported as “inactive”. In the case of `CCOC(=O)c1cnc2ccc(C)cc2c1Sc1ccccc1`, the Potency is reported as inconclusive: 112 µM [inhibitor, single point]. In the case of `CCN(CC)CCOC(=O)c1ccc(NC(=O)c2cc3c(s2)-c2ccccc2OC3)cc1`, the Potency is reported as inconclusive: 7.08 µM [inhibitor, partial curve, poor fit]. `COc1ccc(N2CCCCS2(=O)=O)cc1S(=O)(=O)NCc1ccncc1` was tested, and the Potency was inconclusive: 28.2 µM [inhibitor, partial curve, poor fit]. `Cc1ccc2nc([C@H]3CCN(Cc4ccc(C(F)(F)F)cc4)C3)[nH]c2c1` was tested, and the Potency was inconclusive: 63.1 µM [inhibitor, full curve, poor fit]. In the case of `O=C(/C=C/c1ccccc1Cl)OCC(=O)c1ccc[nH]1`, the Potency is reported as inconclusive: 25.1 µM [inhibitor, single point]. For `O=C(O)CC(=O)Nc1ccccc1C(=O)O`, the Potency was inconclusive: 35.5 µM [inhibitor, partial curve, poor fit]. `COc1ccc([C@H]2CN(c3ccccc3)C(=O)[C@@H]2CC(=O)Nc2ccccc2)cc1` was tested, and the Potency was “inactive”. In the case of `COC(=O)c1ccc(COC(=O)c2oc3ccccc3c2C)o1`, the Potency is reported as inconclusive: 4.47 µM [inhibitor, full curve, poor fit]. For `CCc1ccc(NC(=O)CN2C(=O)c3ccccc3Sc3ccc(C(=O)N4CCCC4)cc32)cc1`, the Potency was inconclusive: 126 µM [inhibitor, partial curve, poor fit]. In the case of `COc1ccc(Nc2ccc(OC)cc2)cc1`, the Potency is reported as inconclusive: 7.94 µM [inhibitor, full curve, poor fit]. `Clc1cccc(C2=NC(c3cccs3)=Nc3ccc(Br)cc3N2)c1` was tested, and the Potency was “inactive”. For `COc1ccc(C(CNC(=O)C(C)(C)Oc2ccc(Cl)cc2)N2CCCC2)cc1` (stereo unspecified), the Potency was inconclusive: 89.1 µM [inhibitor, single point]. With `COc1ccc(CNC(=O)C(CC(C)C)N2Cc3ccccc3C2=O)cc1` (stereo unspecified) the Potency was “inactive”. With `CCN(CC)CCOC(=O)c1ccc(Nc2c3c(nc4ccccc24)CCC3)cc1` the Potency was inconclusive: 44.7 µM [inhibitor, partial curve, poor fit]. `C=CCCN([C@@H](C)C(=O)OC)S(=O)(=O)c1ccccc1Br` was tested, and the Potency was “inactive”. In the case of `CCN1CCSc2ccc(C(=O)NCc3ccccc3C)cc21`, the Potency is reported as inconclusive: 79.4 µM [inhibitor, partial curve, poor fit]. With `Cc1ccc2nc(COc3cccc(NC(=O)c4ccccc4Cl)c3)cc(=O)n2c1` the Potency was inconclusive: 31.6 µM [inhibitor, single point]. For `Cc1nn(C)c(C)c1CN(Cc1cnc(N2CCCCC2)nc1)C1CC1`, the Potency was “inactive”. With `O=C1CC2(CCN(Cc3ccccc3)CC2)Oc2cc(Cl)ccc21` the Potency was inconclusive: 12.6 µM [inhibitor, full curve]. In the case of `COc1ccc(C2C(C(=O)c3ccco3)=C(O)C(=O)N2CC2CCCO2)cc1` (stereo unspecified), the Potency is reported as inconclusive: 20 µM [inhibitor, partial curve, poor fit]. With `CN(C)C1CCN(C(=O)c2ccc(NC(=O)Nc3nc(N4CCOCC4)nc(N4CCOCC4)n3)cc2)CC1` the Potency was inconclusive: 6.85 µM [inhibitor, full curve, poor fit]. In the case of `COc1cc(-c2c(C#N)c(N)nc3[nH]c(=S)[nH]c(=O)c23)ccc1O`, the Potency is reported as inconclusive: 31.6 µM [inhibitor, single point]. `O=C(CCC1CCCC1)N1CCCC(c2noc(COc3ccccc3F)n2)C1` (stereo unspecified) was tested, and the Potency was “inactive”. `Cc1cc(=O)n2nc(N3CCCC(C(=O)NCCc4ccccc4)C3)sc2n1` (stereo unspecified) was tested, and the Potency was “inactive”. For `O=C(O)c1ccccc1NS(=O)(=O)c1cc([N+](=O)[O-])ccc1N/N=C/c1ccsc1`, the Potency was inconclusive: 126 µM [inhibitor, single point]. `CCc1cccc(NC(=O)C2CCN(S(=O)(=O)c3c(C)noc3C)CC2)c1` was tested, and the Potency was “inactive”. For `Cc1ccc(C)c(NC(=O)CN(C)C(=O)CSCc2c(C)noc2C)c1`, the Potency was “inactive”. `CC(C)c1cc(C(C)C)c(S(=O)(=O)NNC(=O)c2ccncc2)c(C(C)C)c1` was tested, and the Potency was “inactive”. With `CN(C)CCNc1oc(COc2cccc(Cl)c2)nc1C#N` the Potency was “inactive”. In the case of `CCC(C)c1cc(S(=O)(=O)N2CCOCC2)ccc1OC` (stereo unspecified), the Potency is reported as inconclusive: 178 µM [inhibitor, partial curve, poor fit]. With `CC(C)c1nnc(N2C(=O)C(O)=C(C(=O)c3cccs3)C2c2ccccc2)s1` (stereo unspecified) the Potency was inconclusive: 50.1 µM [inhibitor, partial curve, poor fit]. In the case of `O=C(O)c1cccc(-c2ccc(CNC3CCCCC3)o2)c1`, the Potency is reported as inconclusive: 39.8 µM [inhibitor, partial curve, poor fit]. For `O=C(COc1ccccc1)Nc1ccc(S(=O)(=O)NCc2ccco2)cc1`, the Potency was “inactive”. With `CC1CN(C(=O)COC(=O)[C@@H]2CC(O)CN2S(=O)(=O)c2ccc3c(c2)OCCO3)CC(C)O1` (stereo partly specified) the Potency was inconclusive: 12.6 µM [inhibitor, full curve, poor fit]. `Nc1nc(N)c2[nH]c(=S)[nH]c2n1` was tested, and the Potency was inconclusive: 31.6 µM [inhibitor, partial curve, poor fit]. In the case of `Cc1nc(NCc2ccco2)c2c3c(sc2n1)CCC3`, the Potency is reported as inconclusive: 50.1 µM [inhibitor, partial curve, poor fit]. For `COc1ccc(-c2nc3c4ccccc4ccn3c2CN2CCOCC2)cc1OC`, the Potency was inconclusive: 112 µM [inhibitor, single point]. `CSc1ccc(C(O)c2ncc(-c3cccc(F)c3)[nH]2)cc1` (stereo unspecified) was tested, and the Potency was “inactive”. In the case of `COc1ccc(NS(=O)(=O)c2ccc3oc(SCC(=O)N4CCCCC4)nc3c2)cc1`, the Potency is reported as inconclusive: 44.7 µM [inhibitor, partial curve, poor fit]. For `COCCSc1ccccc1C(=O)NCc1ccc2c(c1)OCO2`, the Potency was inconclusive: 50.1 µM [inhibitor, partial curve, poor fit]. In the case of `CC1(C)NC(=O)N(CCC(=O)Nc2cccc3cccnc23)C1=O`, the Potency is reported as inconclusive: 70.8 µM [inhibitor, single point]. For `N#Cc1ccc(CN2CCCC3(CNc4ccccc4[S+](=O)([O-])N3)C2)cc1` (stereo unspecified), the Potency was inconclusive: 28.2 µM [inhibitor, partial curve, poor fit]. For `CC(C)Cn1c(=O)c2ccccc2n2c(CCC(=O)Nc3ccc(F)cc3)nnc12`, the Potency was inconclusive: 112 µM [inhibitor, partial curve, poor fit]. With `C#CCOCCOCCOCCNc1nc(N2CCN(C(=O)[C@H]([C@@H](C)CC)n3cc(CCCCN)nn3)CC2)nc(N2CCN(C(=O)[C@H](CCCCN)n3cc(CC(C)O)nn3)CC2)n1` (stereo partly specified) the Potency was inconclusive: 35.5 µM [inhibitor, partial curve, poor fit]. For `COCCCNc1ncccc1-c1cc(-c2ccccc2)nc2c(C)noc12`, the Potency was inconclusive: 39.8 µM [inhibitor, partial curve]. With `COc1cccc(CN2CCN(c3ncccn3)CC2)c1` the Potency was active: 0.794 µM. For `Cc1cc(NC(=O)c2ocnc2C)no1`, the Potency was “inactive”. In the case of `CSc1ccccc1NC(=O)c1noc2c1CCC2`, the Potency is reported as inconclusive: 44.7 µM [inhibitor, partial curve, poor fit]. With `COc1ccccc1S(=O)(=O)N(C)C[C@@H]1OCc2cnnn2CCCC(=O)N([C@H](C)CO)C[C@H]1C` the Potency was inconclusive: 70.8 µM [inhibitor, partial curve, poor fit]. For `O=C(Nc1cccc([N+](=O)[O-])c1)c1cc2ccccc2cc1O`, the Potency was inconclusive: 79.4 µM [inhibitor, partial curve, poor fit]. In the case of `CCCCN(C(=O)C1=NN(c2ccccc2)C(=O)CC1)c1c(N)n(CC(C)C)c(=O)[nH]c1=O`, the Potency is reported as inconclusive: 112 µM [inhibitor, single point].

— PubChem BioAssay AID1671190 (National Center for Advancing Translational Sciences (NCATS), 2021)
Potency is the fitted concentration of half-maximal effect.
